Reference: the supplement of paper PMC12764529
± gives the half width of the 95% confidence interval. For many entries, trypsin and chymotrypsin gave values far apart.

Tests used:
[1] = folding stability dG unfold from chymotrypsin proteolysis; higher = more stable
Protocol: (§1)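 Folding stability of de novo designed mini-proteins (<80 aa, no Cys; designed by TrROS, TrMRF, ProteinMPNN and the joint model) was measured by cDNA display proteolysis with trypsin and chymotrypsin. Each protease was used at 11 concentrations in a threefold dilution series plus a no-protease condition. K50 was inferred by Bayesian fitting of sequencing counts, and dG unfold was derived against a sequence-predicted unfolded-state K50 (Tsuboyama et al. method). Sequences shown include variable-length N-terminal GS-type padding (SAGGSAGG...) inside a display construct carrying a PA tag. Rows were kept only if the AF2 dimer inter-PAE was >15, to exclude likely homo-oligomers.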

[2] = folding stability dG unfold (combined trypsin and chymotrypsin); higher = more stable
Protocol: as §1

Row | Sequence | folding stability dG unfold [1] | folding stability dG unfold [2]
1 | SAGGSAGGSAGSIEEALKKLSPTKSAIIKVKNPDGTEITVKVSTSYIPEKGEIKYPIELASAGGSAGGSAGG [r11_343_JUSTAS] | 5.76 ± 0.259 kJ/mol | 2.94 ± 1 kJ/mol
2 | SAGGVSSSYDPKTNLKIIEKTIDDELEIKIIKPKPRPKIVVVPLEELVAKDPSLAPEVAKDPDTEVVLPSAG [r5_958_JUSTAS] | 4.43 ± 0.209 kJ/mol | 2.39 ± 0.46 kJ/mol
3 | SAGGAPTVVSYDPETGSVHVAFGTNPETGEYTVVIVTPDGRPILVPGPVPSLEEAVERAREALAEAGSAGGS [r16_319_TrMRF] | 7.93 ± 0.109 kJ/mol | 5.9 ± 0.544 kJ/mol
4 | SAGSSLTPEETASETPSFTTLPGPPGLTVETRTTTLPTPPYPVTTETTLHDPRTGTSTTTTTTTLDPGGSAG [r5_471_JUSTAS] | 4.82 ± 0.176 kJ/mol | 2.24 ± 0.372 kJ/mol
5 | SAGGTVTADLLLPGDRTRLRVVALEPAPETPPNGPRRLNLRARIEVIDPRTGAPRTYTWDAVSGTVSEESAG [r5_212_TrMRF] | 6.91 ± 0.351 kJ/mol | 3.52 ± 0.247 kJ/mol
6 | SVTDRVVTDPAGSTWTEDATTGVATRTDAVTGTTTTTQVTPVPGGVLVQTTTGGTPSLRTVPPDAALVTGSA [r9_239_JUSTAS] | 6.34 ± 0.092 kJ/mol | 4.23 ± 0.402 kJ/mol
7 | SAGGSAGGSAGAVARVVLEDGGEVEILLEPDEPLTVEELERRLVIPPGRRARIARVEILPASAGGSAGGSAG [r3_465_TrMRF] | 4.72 ± 0.151 kJ/mol | 2.29 ± 0.331 kJ/mol
8 | SAGGSAGGSAVKVEVEGDYLRIEVEYELYDPETGEKKTLTLELEIKIPPIPPAEVPLVENAASAGGSAGGSA [r18_501_TrMRF] | 7.66 ± 0.837 kJ/mol | 6.6 ± 1.97 kJ/mol
9 | SAGGGSSVSSRTLTTPDGGTLTVNNMTNPGSSITATFYNPATGVSVPLPFTSESEADAALAALAAALSAGGS [r16_736_JUSTAS] | 4.27 ± 0.41 kJ/mol | 2.07 ± 0.364 kJ/mol
10 | SAGGSAGGSAGSSALELAREIARRLGLPEIDLVVEDTRDGEVTTTVLRLPVEPPPLPELLSAGGSAGGSAGG [r17_40_JUSTAS] | 4.2 ± 0.544 kJ/mol | 2.02 ± 0.364 kJ/mol
11 | SAGGSASVSYDPTPGPTRRTTTLLETEEVGPNLKRVKTKVTLFPSDGVPTTSTVTELDLVPPPELPSAGGSA [r15_1035_JUSTAS] | 2.2 ± 0.238 kJ/mol | 0.536 ± 0.46 kJ/mol
12 | SAGGSAGGSAGGGPRRLRLSIPLTVPVFTLVDGEPRVEPAPLNLTFEFTLPEGLPTELLSAGGSAGGSAGGS [r10_633_TrMRF] | 13.1 ± 0.238 kJ/mol | 10.7 ± 0.397 kJ/mol
13 | SAGGSAGGSAMVTVTTPVTALPEEPVRRVTVEVYDLDPAGNPVTRTEVLNPPDGAALPLGESAGGSAGGSAG [r3_53_JUSTAS] | 5.52 ± 0.092 kJ/mol | 3.17 ± 0.364 kJ/mol
14 | SAGGSAGGSAGMTRTTELPEGVLTVTTEEPEEDVVLVTEEEVVDGEVVRVTPRRLPPGALSAGGSAGGSAGG [r11_167_JUSTAS] | 6.21 ± 0.109 kJ/mol | 4.65 ± 0.41 kJ/mol
15 | SAGGPGIPVKTLNILVEFPPEETLEQARERVEELAEELRKKFPELLSVDVDVEKVGDRYIANIKVEIPLSAG [r5_446_TrMRF] | 14 ± 0.502 kJ/mol | 16.7 ± 0.92 kJ/mol
16 | SAGGSAGGSAGSLEGLSSAPPDVVVDVELDLVVEEPAEPPRGSPVARPVAPVRRRVRYRPSAGGSAGGSAGG [r11_36_JUSTAS] | 4.21 ± 0.586 kJ/mol | 1.74 ± 0.628 kJ/mol
17 | SAGGSAGRVVAVPPAGLRVEFPVPEGMTPEEVAELALALADAAVAATGNPDVAVFYDPETGEVVVASAGGSA [r15_33_TrMRF] | 6.07 ± 0.0879 kJ/mol | 3.64 ± 0.222 kJ/mol
18 | SAGGSAGGSAPPWTRVLGLGTFPPGVPDLPVEVPGGNVYALFTPTEDGSVQVLIVDLIPPLSAGGSAGGSAG [r3_464_TrMRF] | 4.04 ± 0.879 kJ/mol | 3.24 ± 0.711 kJ/mol
19 | SAGGSAGGSAGGMTTVRRFDPTADPETLAAALPDDVVEVTVDRSPALEAAGGVAVSATRASAGGSAGGSAGG [r11_1002_JUSTAS] | 4.56 ± 0.0837 kJ/mol | 2.21 ± 0.243 kJ/mol
20 | SAGGSAGGSAGGSTLEEIRELAKAGKKVKIKLKETGKEVEITPEDLEKLKGKEIEIEEVSAGGSAGGSAGGS [r4_157_TrROS_Hall] | 4.24 ± 0.753 kJ/mol | 2.03 ± 1.8 kJ/mol
21 | SAGGSAGGSAGGANIPSSAVDAANAVAASGEATDVVVTLTVTGPDGNPTTVTITIKFTAASAGGSAGGSAGG [r7_114_JUSTAS] | 10.5 ± 0.31 kJ/mol | 8.11 ± 0.669 kJ/mol
22 | SAGGSAGGSAETIATASTSPPSSTVTSTLPGSGATVTTTVAPDGTPTVTTTDATTPTTVAASAGGSAGGSAG [r3_458_JUSTAS] | 6.57 ± 0.117 kJ/mol | 5.12 ± 0.18 kJ/mol
23 | SAGGSAGGSAGGSTVREVRPEVTREPLPADPSLPEVERTTTTTLVDDEWTTTTTTTPVASAGGSAGGSAGGS [r10_1010_JUSTAS] | 5.37 ± 0.0837 kJ/mol | 3.24 ± 0.226 kJ/mol
24 | SAGGAPPPVLVVPFDANLGGEAVPALVAVLPNGEALVFIVGPDGSAGVVPAGALAELLKAPGSLAAVSAGGS [r16_105_TrMRF] | 8.86 ± 0.385 kJ/mol | 6.13 ± 0.544 kJ/mol

Single records, as listed above:
SAGGSAGGSAGGSTVREVRPEVTREPLPADPSLPEVERTTTTTLVDDEWTTTTTTTPVASAGGSAGGSAGGS [r10_1010_JUSTAS] as listed: folding stability dG unfold [1] = 5.37 ± 0.0837 kJ/mol; folding stability dG unfold [2] = 3.24 ± 0.226 kJ/mol
SAGGSAGGSAGGANIPSSAVDAANAVAASGEATDVVVTLTVTGPDGNPTTVTITIKFTAASAGGSAGGSAGG [r7_114_JUSTAS] as listed: folding stability dG unfold [1] = 10.5 ± 0.31 kJ/mol; folding stability dG unfold [2] = 8.11 ± 0.669 kJ/mol

Going on with the list:

Row | Sequence | folding stability dG unfold [1] | folding stability dG unfold [2]
25 | SGLVVVPVTHPDGGRVLLVFDPATGRVVVFADPDVPLADIAAALRALLPADADAVVTTHPDGTALVELKPSA [r9_933_TrMRF] | 11.45 ± 0.105 kJ/mol | 9.55 ± 0.234 kJ/mol
26 | SAGGSAGGSRVLVVVELENTGEVLVREFGSLEDAVAAIPSDAPVRRIEVFPILPPLSPEALARSAGGSAGGS [r12_851_TrMRF] | 4.23 ± 0.36 kJ/mol | 2.29 ± 0.544 kJ/mol
27 | SSLTLTELLSESSETDPAGTTTRTLVELAEEPDEPVVVTTTTTTTTDAAGNSTTTTTTTVVPASAPGIAASA [r9_300_JUSTAS] | 4.99 ± 0.209 kJ/mol | 3.49 ± 0.31 kJ/mol
28 | SAGKKITIEIEVKVKTLEEALKKAKELIEKILKELFPGKKLKVKIVKIEVEKEENGELIVKIKIEIEEESAG [r5_320_TrROS_Hall] | 14.1 ± 0.92 kJ/mol | > 25.1 kJ/mol
29 | SAGGSAGGSAGGPVIAFPNSREKAKSITVHPDGTVTVELENGEVRTFDNVVLFHPDSDASAGGSAGGSAGGS [r10_1151_TrMRF] | 7.18 ± 0.176 kJ/mol | 5.01 ± 0.46 kJ/mol
30 | SAGGSAGGMLTLSFSSPEDAAKARELLAAAGARWEEDPATGTLRVDLDEATREALKQLPGVTLESAGGSAGG [r6_726_JUSTAS] | 15.6 ± 0.243 kJ/mol | 14.2 ± 0.356 kJ/mol
31 | SAGKIEIHYNPDGMFRIKIEYKDGNKPHEWTIPIPPGQPPEKIKDQLEELAENHGLEDVDVKIEPVPPSAGG [r19_31_TrROS] | 4.66 ± 0.92 kJ/mol | 2.51 ± 1.59 kJ/mol
32 | SAGGSAGGSAGGMTVAITDAEGNVTVTPLSSVSAELLEALKKAGATVTTLPDGSLLITRASAGGSAGGSAGG [r7_496_JUSTAS] | 10.2 ± 0.184 kJ/mol | 7.9 ± 0.46 kJ/mol
33 | SAGGSKPEKIKVVSVEVFPDGLIKVKVKTESGYEATALIVKLPGDKYLIFLTIPANGKPFVFELPASAGGSA [r2_361_TrMRF] | 10.9 ± 0.13 kJ/mol | 10.6 ± 0.301 kJ/mol
34 | SAGGSAGGSAGGIEKFLEKHPELKIKKEIKIKIPYKTKDGKEFEVEYKIFYLTSEDEEDSAGGSAGGSAGGS [r10_0_TrMRF] | 11.5 ± 0.238 kJ/mol | 9.86 ± 0.293 kJ/mol
35 | SAGGSAGGSAGKVIKLEELKKKFPNMSPEELAAFFKKLGYKVEVVKVGDVPYVFLSPGEKSAGGSAGGSAGG [r11_707_TrMRF] | 15.38 ± 0.0837 kJ/mol | 13.9 ± 0.205 kJ/mol
36 | SAGGSMQPRYKVETTETTETYPERGLKTKTTTTTVTLPDGSTVTTTTTTTYDPSNGTPVATTTTTDPAASAG [r5_819_JUSTAS] | 7.56 ± 0.163 kJ/mol | 4.61 ± 0.46 kJ/mol
37 | SAGGSAGGSAGSSTVTYPNSTVTTELGGPALTTTTTDPNTTSTTVTVTPLPGVAPTPAAASAGGSAGGSAGG [r11_788_JUSTAS] | 5.69 ± 0.092 kJ/mol | 4.26 ± 0.234 kJ/mol
38 | SAGAKYYPVENLKIKEKVKEGNKLKIEIEYPEGGSVSTNPDGSMTYYDPKTGGYVYFDSKGNLVEVKPSSAG [r5_348_JUSTAS] | 6.19 ± 0.155 kJ/mol | 4.4 ± 0.339 kJ/mol
39 | SAGGSAGGSAGGSMTVSYPGTTRTVPPGSPVVVGGGRVVDPALSFSEVSPEDRVAVGSAPSAGGSAGGSAGG [r17_511_JUSTAS] | 4.41 ± 0.0795 kJ/mol | 2.06 ± 0.364 kJ/mol
40 | SAGGSAGGSAGGPVVARILSYDPERRRLVLELPDGSRLVLPVPDDLRPEDLLDREVVLDLSAGGSAGGSAGG [r7_296_TrMRF] | 12.1 ± 0.259 kJ/mol | 10.1 ± 0.46 kJ/mol
41 | SAGGSAGGSAGGGSMTVTEEELPGGERRVTTRDPATGTTTTTLLKPGGDVVETLTDPAASAGGSAGGSAGGS [r10_1044_JUSTAS] | 5.98 ± 0.0711 kJ/mol | 4.18 ± 0.276 kJ/mol
42 | SAGGSAGGSAGPKPGDYVLRPATLTLELGPALVRDPDGNLFEVDRLELQVTVNYLVPAGLSAGGSAGGSAGG [r11_907_TrMRF] | 12.7 ± 0.167 kJ/mol | 10.5 ± 0.418 kJ/mol
43 | SAGGSAGGSAGMPPGAPKLRVRVEIQNPNGEPIGEHEFPVDDAEEFAENNGMPIRIDDIVSAGGSAGGSAGG [r17_200_TrROS] | 4.49 ± 0.121 kJ/mol | 2.22 ± 0.46 kJ/mol
44 | SAGGSAGGSARPVVLTGLLPDNVLVTVAFDPETGKVSVTVTPVPPVPPLAIGPEDAARLLAGSAGGSAGGSA [r18_236_TrMRF] | 4.8 ± 0.184 kJ/mol | 2.75 ± 0.586 kJ/mol
45 | SAGGMTLTPDEYLEILLGLPTGIERRVFLPGGDLEAALAATGLPPERVPVREIRALPLSPEEVAARLASAGG [r13_850_JUSTAS] | 6.02 ± 0.197 kJ/mol | 3.27 ± 0.372 kJ/mol
46 | SAGGSARLVSRSPAPVLRYEFPLPSGERLRVDVHPDGTVTVTRFYPERGRPERRTIPGAAIEELLGSAGGSA [r15_406_TrMRF] | 5.4 ± 0.46 kJ/mol | 3.73 ± 0.502 kJ/mol
47 | SAGGSAITIRPEELLRLAREPGLEVEFEPLPDGRLVLTIYDPSTGARIDVVVLPPPLGGVVPRPVPSAGGSA [r15_442_TrMRF] | 9.48 ± 0.134 kJ/mol | 7.36 ± 0.502 kJ/mol
